Test results published in publication PMC8877947.

Target: T1, barrier-to-autointegration factor-like protein (BAF-L) (mouse (endogenous in testis)) (UniProt Q8BVR0)
T1 sequence: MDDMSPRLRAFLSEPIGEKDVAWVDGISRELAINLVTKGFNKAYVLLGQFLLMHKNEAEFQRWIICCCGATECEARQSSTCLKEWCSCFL
Test: co-IP; testis lysate (50 mM Tris, 150 mM NaCl, 0.1-0.5% Tween 20, pH 7.5) precipitated with BAF-L antibody on protein A/G magnetic beads, 1 h at 4 °C; blots for histones H2A, H2B, H3, H4 and protamine 1

## histone H2A (mouse (endogenous in testis))
  binding: no binding

## histone H2B (mouse (endogenous in testis))
  binding: no binding

Results are given in words; binding and its absence hold for the method and conditions named. Binding seen in cells or lysates may run through a third protein.
